Source: patent publication US20070219767A1, “ATOMIC COORDINATES OF ALBUMIN DRUG COMPLEXES AND METHOD OF USE OF PHARMACEUTICAL DEVELOPMENT” (priority 2003, published 2007)
Entries after “also recorded” stand apart in the source; their conditions may differ.

By UniProt entry, the sequences of proteins in these tests, tags left out. Residues count along the entry.
UniProt P02768, 25-609: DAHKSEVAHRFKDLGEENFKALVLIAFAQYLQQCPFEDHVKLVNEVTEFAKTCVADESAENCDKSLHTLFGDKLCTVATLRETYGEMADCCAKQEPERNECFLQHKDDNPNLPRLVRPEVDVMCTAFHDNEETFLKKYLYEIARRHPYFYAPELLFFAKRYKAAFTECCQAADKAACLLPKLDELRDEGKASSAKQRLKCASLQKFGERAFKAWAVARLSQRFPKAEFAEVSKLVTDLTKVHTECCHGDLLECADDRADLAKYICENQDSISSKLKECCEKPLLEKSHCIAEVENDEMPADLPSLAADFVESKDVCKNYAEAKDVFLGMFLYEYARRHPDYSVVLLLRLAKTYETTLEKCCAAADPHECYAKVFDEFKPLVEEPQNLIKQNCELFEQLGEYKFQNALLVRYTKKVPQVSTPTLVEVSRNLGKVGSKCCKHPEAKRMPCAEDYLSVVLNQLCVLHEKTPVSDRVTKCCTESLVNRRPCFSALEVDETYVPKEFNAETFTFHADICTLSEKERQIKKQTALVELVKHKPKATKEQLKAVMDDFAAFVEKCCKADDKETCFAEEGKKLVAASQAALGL

Molecular target: human serum albumin (Homo sapiens, UniProt P02768)
Assay: X-ray crystallography of human serum albumin/drug complexes: binding location
Design: Domain I (1 through 192); Domain II (193 through 395);Domain III (396 THROUGH 585)
Conditions: Table II, Phase II; refined coordinates; listed residues within 5 Å of bound ligand
Source text: This information was derived from crystallization of the protein/ligand to create a protein/ligand complex and determining the atomic structure of the resulting complex by x-ray diffraction. The ligand may be any ligand capable of binding to the human serum albumin protein, and is preferably a ligand that binds to one of the binding sites described herein.
One method of obtaining information regarding the structural; characteristics of the albumin binding regions is through protein crystallization processes.
By applying standard crystallization protocols to the above described crystallizable compositions, crystals of the human serum albumin complex may be obtained. This, an even further aspect of this invention relates to a method of preparing human serum albumin complex-containing crystals. The method comprises the steps of • (a) obtaining a crystallizable composition comprising a human serum albumin protein, divalent cations, and a ligand capable of binding to the protein, and • (b) subjecting the composition of step (a) to conditions which promote crystallization.
The “active site binding pockets” or “active site” of human serum albumin refers to one of several areas determined experimentally on the human serum albumin protein surface where substrates bind.

## COc1ccc2cc([C@H](C)C(=O)O)ccc2c1 [Naproxen]
  Binding site of the Drug-Albumin Complex (site heading the list of contacting residues): Site IB, L115, V116, R117, P118, M123, L135, Y138, L139, I142,; also recorded: Site IIA-IIB, R209, A210, A213, D324, L327, G328, L331, L347,; also recorded: Site IIIA, L387, I388, N391, C392, F403, L407, R410, Y411, K414,
